Results as given in article PMC2987844.
These are yes or no findings as the source states them, for the method shown. In cells and extracts the contact can be indirect. Some results given as binding are weak or reduced against the parent protein; the word gives no strength. Sequences can lack the tags named with a protein.

Amino acid sequences for entries named in this document (tags omitted). Residues count along the entry.
UniProt P18519, residues 20-416: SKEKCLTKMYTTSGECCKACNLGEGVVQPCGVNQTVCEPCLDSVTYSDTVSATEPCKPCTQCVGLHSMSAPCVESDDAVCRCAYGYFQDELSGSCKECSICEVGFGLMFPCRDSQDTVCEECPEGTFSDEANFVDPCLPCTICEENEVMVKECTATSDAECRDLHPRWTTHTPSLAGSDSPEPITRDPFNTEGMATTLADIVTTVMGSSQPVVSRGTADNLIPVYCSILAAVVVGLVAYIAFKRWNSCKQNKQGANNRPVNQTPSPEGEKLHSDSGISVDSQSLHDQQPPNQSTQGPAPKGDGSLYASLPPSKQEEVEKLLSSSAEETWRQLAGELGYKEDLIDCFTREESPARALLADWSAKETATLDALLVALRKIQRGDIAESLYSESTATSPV

Target: T1, ephrinA5^HA (UniProt P52804)
T1 sequence: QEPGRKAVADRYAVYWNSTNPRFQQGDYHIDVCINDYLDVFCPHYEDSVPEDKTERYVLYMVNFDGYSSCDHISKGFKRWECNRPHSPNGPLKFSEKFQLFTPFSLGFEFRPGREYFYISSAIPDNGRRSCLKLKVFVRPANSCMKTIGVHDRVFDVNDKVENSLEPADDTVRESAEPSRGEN
Assay: co-IP; CHO cells co-transfected with p75^(NTR, FLAG) and ephrinA5^HA, serum starved, untreated or treated for 30 minutes with 100 ng/ml NGF, proBDNF or proNGF; lysis in 25 mM Tris pH 7.4, 150 mM NaCl, 1% Triton X100; immunoprecipitation with αHA affinity gel overnight at 4°C; western blot

binding: binds
Substance: p75^(NTR, FLAG) (from UniProt P18519 20-416) (receptor)
